Primary screen of a compound library

Sequences of proteins named here, by UniProt entry; tags and fusion partners are left off. Residues count along the entry.
UniProt P9WPC5, whole entry: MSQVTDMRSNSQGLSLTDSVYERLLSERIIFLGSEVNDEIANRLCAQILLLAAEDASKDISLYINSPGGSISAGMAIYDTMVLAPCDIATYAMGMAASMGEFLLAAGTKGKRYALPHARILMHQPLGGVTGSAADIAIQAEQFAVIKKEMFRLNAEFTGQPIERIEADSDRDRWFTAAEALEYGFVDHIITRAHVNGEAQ
UniProt P9WPC3, whole entry partner: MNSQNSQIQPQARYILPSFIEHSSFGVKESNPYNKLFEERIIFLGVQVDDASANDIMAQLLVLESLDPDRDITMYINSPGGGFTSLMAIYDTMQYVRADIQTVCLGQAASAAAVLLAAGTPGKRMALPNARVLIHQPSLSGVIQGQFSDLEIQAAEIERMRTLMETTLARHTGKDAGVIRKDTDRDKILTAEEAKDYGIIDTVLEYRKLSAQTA
UniProt P9WFT3, whole entry: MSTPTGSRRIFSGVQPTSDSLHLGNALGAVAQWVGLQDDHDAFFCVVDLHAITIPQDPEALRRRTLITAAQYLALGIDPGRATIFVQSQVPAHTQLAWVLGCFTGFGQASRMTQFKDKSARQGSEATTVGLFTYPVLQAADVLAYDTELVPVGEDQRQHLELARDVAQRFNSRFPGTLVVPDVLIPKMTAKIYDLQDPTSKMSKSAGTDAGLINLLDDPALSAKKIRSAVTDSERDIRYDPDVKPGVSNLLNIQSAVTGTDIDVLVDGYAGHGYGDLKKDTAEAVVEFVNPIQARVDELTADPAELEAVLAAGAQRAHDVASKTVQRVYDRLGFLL
UniProt I6X8D2, whole entry: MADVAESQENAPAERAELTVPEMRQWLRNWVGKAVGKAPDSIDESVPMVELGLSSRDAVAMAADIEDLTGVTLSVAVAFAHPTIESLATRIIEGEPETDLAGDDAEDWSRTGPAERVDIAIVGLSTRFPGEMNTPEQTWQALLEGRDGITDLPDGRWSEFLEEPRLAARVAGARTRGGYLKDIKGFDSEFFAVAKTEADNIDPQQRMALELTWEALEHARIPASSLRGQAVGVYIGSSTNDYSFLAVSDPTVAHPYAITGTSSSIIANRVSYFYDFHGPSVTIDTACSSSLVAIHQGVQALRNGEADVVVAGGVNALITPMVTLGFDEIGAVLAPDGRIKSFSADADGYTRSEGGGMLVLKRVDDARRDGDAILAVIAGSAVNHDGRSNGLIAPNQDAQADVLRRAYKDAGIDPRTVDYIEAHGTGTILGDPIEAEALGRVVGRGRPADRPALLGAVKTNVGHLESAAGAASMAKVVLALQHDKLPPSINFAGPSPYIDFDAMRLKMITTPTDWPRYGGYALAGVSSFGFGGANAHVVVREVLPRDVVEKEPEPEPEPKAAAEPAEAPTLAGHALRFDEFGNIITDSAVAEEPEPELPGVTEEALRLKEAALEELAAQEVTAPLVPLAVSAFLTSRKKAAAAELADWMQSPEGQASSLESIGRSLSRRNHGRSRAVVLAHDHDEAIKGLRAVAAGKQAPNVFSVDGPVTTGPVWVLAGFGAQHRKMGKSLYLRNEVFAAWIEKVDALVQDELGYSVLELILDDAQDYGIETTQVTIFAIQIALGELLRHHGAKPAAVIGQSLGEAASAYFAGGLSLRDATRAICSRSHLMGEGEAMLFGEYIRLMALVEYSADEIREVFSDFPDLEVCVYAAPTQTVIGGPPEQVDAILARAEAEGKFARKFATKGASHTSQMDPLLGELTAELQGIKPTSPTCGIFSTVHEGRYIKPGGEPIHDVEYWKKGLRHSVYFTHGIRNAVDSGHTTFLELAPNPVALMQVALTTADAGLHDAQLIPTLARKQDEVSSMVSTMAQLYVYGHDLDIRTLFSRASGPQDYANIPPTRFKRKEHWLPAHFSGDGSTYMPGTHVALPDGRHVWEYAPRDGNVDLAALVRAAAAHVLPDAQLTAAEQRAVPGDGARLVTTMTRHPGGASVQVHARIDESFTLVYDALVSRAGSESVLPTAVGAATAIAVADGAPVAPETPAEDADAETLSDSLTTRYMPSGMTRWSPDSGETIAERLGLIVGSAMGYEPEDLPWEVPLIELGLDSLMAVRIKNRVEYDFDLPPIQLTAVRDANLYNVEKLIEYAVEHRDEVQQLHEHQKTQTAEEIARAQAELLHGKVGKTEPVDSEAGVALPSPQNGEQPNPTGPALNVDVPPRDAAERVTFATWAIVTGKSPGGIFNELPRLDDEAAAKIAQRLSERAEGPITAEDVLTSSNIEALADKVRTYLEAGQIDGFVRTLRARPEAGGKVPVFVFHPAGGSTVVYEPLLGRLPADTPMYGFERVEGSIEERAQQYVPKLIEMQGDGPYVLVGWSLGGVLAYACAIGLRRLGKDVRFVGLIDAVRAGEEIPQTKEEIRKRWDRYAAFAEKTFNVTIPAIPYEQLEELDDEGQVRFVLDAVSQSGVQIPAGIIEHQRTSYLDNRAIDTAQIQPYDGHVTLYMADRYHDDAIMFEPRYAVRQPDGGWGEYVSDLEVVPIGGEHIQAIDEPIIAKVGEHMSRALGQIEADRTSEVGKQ
UniProt Q8IDJ8, 1-583: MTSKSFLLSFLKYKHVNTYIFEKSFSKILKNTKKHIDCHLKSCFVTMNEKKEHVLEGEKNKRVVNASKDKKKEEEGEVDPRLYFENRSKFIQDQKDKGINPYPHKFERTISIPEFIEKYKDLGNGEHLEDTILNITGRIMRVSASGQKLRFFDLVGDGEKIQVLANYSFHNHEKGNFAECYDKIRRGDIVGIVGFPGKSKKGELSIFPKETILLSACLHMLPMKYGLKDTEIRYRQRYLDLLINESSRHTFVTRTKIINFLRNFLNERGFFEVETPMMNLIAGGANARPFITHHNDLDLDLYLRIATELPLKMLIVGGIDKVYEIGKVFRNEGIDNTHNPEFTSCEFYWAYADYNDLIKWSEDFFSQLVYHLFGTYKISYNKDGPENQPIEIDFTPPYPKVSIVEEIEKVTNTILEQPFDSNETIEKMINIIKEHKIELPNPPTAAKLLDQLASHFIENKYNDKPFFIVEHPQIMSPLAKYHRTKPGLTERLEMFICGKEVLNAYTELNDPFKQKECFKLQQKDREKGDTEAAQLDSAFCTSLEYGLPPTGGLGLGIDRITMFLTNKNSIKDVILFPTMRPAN

Results are given as percent effect. The record does not define 0% and 100%; most values in the screen are far below 50% and negative numbers occur (in some assays of this library far below -100). The compounds are a random part of those screened.

ClpP1P2: 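ClpP1P2, Mycobacterium tuberculosis (UniProt P9WPC5 and UniProt P9WPC3). Protease assay of ClpP1P2, read by the AMC dye that it sets free. Concentration: 50 µM. Direction is inferred from only a few compounds that gave an IC50; most scored high, so higher reads as stronger inhibition. Most other retested compounds had strongly negative values. Size under these conditions: about 69,000 compounds, about 10 of them at 50% or above in at least one test.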
MtTrpRS: 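Tryptophan-tRNA ligase, Mycobacterium tuberculosis (UniProt P9WFT3). Enzyme assay of tryptophanyl-tRNA synthetase; the read-out is not stated. Compounds at 10 µM. Higher most likely means stronger inhibition; the record gives no direction and few retests gave an IC50. About 65,000 compounds were tested under these conditions; 0.098% (about 64) showed 50% or more at least once.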
Pks13 thioesterase: 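Polyketide synthase Pks13, Mycobacterium tuberculosis (UniProt I6X8D2). Enzyme assay of the thioesterase domain of polyketide synthase 13; the read-out is not stated. Compounds at 30 µM. The record gives no direction; the compounds picked for IC50 retests had high values, so higher reads as stronger inhibition. About 67,000 compounds were tested under these conditions; 0.46% (about 300) showed 50% or more at least once.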
PfKRS1: 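Enzyme assay of the cytosolic lysyl-tRNA synthetase in 384-well plates, read by luminescence. Target: Lysine-tRNA ligase, Plasmodium falciparum 3D7 (UniProt Q8IDJ8). Tested at 30 µM. Direction is inferred from only a few compounds that gave an IC50; most scored high, so higher reads as stronger inhibition. Size under these conditions: about 69,000 compounds, about 49 of them at 50% or above in at least one test.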

* CC(C)NC(=O)[C@@H]1C[C@@H](N)CN1C(=O)c1cc2c([nH]c1=O)CCCC2 : ClpP1P2: -2.259%; MtTrpRS: 1.687%; Pks13 thioesterase: -25.04%; PfKRS1: 7.164%
* Cc1cc(C)n(-c2cncc(NCCNS(C)(=O)=O)n2)n1 : ClpP1P2: -32.37%; MtTrpRS: 3.987%; Pks13 thioesterase: 59.2%; PfKRS1: 5.226%
* O=C(Cn1cc(-c2ccccc2)ncc1=O)Nc1nnc[nH]1 : ClpP1P2: -248%; MtTrpRS: 2.757%; Pks13 thioesterase: -4.424%; PfKRS1: 8.528%
* Cn1nccc1-c1ccc2nc(C3CCNCC3)nn2c1 : ClpP1P2: -27.78%; MtTrpRS: 13.03%; Pks13 thioesterase: -35.69%; PfKRS1: 0.6369%
* CCn1nc(C)c2ccn(CC(=O)NC3CC3)c(=O)c21 : ClpP1P2: -13.08%; MtTrpRS: -0.000007%; Pks13 thioesterase: 6.552%; PfKRS1: 1.872%
* CC(C)c1ccc(OCCC(=O)N(C)CC(N)=O)cc1 : ClpP1P2: 6.015%; MtTrpRS: -2.816%; Pks13 thioesterase: -29.54%; PfKRS1: 5.497%
* Cc1nc(C2CCCN2C(=O)Cc2ccc3c(c2)OCO3)nc(O)c1C (stereo not shown) : ClpP1P2: 8.898%; MtTrpRS: -1.217%; Pks13 thioesterase: 0.6536%; PfKRS1: 1.221%
* COCCN1C(=O)CCC12CCCN(c1ncc(F)cn1)CC2 (stereo not shown) : ClpP1P2: 3.635%; MtTrpRS: 4.064%; Pks13 thioesterase: -32.5%; PfKRS1: -3.684%
* CS(=O)(=O)N1CCC2(CC1)NCCn1c(-c3ccccc3)cnc12 : ClpP1P2: -2.951%; MtTrpRS: -4.207%; Pks13 thioesterase: -17.63%; PfKRS1: 8.44%
* CCC[C@H]1CN(Cc2ccc(N(C)C)nc2)C[C@@H]1NC(=O)CO : ClpP1P2: -22.9%; MtTrpRS: -8.779%; Pks13 thioesterase: -35.61%; PfKRS1: -0.2067%
* CNc1nc2c(c(C(=O)N3CCCC3)n1)CN(Cc1ccco1)CC2 : ClpP1P2: -0.5509%; MtTrpRS: 5.241%; Pks13 thioesterase: 19.56%; PfKRS1: 8.112%
* CC(C)C(=O)N1CCN(S(=O)(=O)C2CC2)CC2(CC(=O)N(C)C2)C1 (stereo not shown) : ClpP1P2: 2.565%; MtTrpRS: -7.033%; Pks13 thioesterase: -20.33%; PfKRS1: 1.711%
* Fc1ccccc1C1NCCc2cc3c(cc21)OCCO3 (stereo not shown) : ClpP1P2: -6.437%; Pks13 thioesterase: 17.3%; PfKRS1: 5.84%
* CCn1ccnc1CN(C)C1CCCN(Cc2ccccc2F)C1 (stereo not shown) : ClpP1P2: -22.41%; MtTrpRS: 1.522%; Pks13 thioesterase: 1.303%; PfKRS1: 4.277%
* Cn1ncnc1NCc1ccccc1Cl : ClpP1P2: -5.413%; MtTrpRS: -1.224%; Pks13 thioesterase: -8.327%; PfKRS1: -3.694%
* CCc1nc(C2CCCN2CC(=O)Nc2nncs2)no1 (stereo not shown) : ClpP1P2: -1.198%; MtTrpRS: 1.998%; Pks13 thioesterase: -15.62%; PfKRS1: 2.423%
* Oc1ccc(N(CCc2ccccc2)CCn2cncn2)cc1 : ClpP1P2: -10.41%; MtTrpRS: -2.037%; Pks13 thioesterase: 5.292%; PfKRS1: 17.23%
* O=C(O)[C@]12CCCN(Cc3ccccc3)C[C@H]1CN(c1ncccn1)C2 : ClpP1P2: -2.194%; MtTrpRS: 2.204%; Pks13 thioesterase: -25.85%; PfKRS1: 0.7594%
* CN(C)C(=O)c1noc2c1CN(C(=O)CCCN1CCCCC1)CC2 : ClpP1P2: 2.655%; MtTrpRS: -4.285%; Pks13 thioesterase: 6.246%; PfKRS1: 1.98%
* O=C(NCCN1CCCCC1)c1nc2ccccc2c(=O)[nH]1 : ClpP1P2: 6.952%; MtTrpRS: 1.005%; Pks13 thioesterase: -12.34%; PfKRS1: 4.536%
* COCC1CC2(CCN(c3cccc(C)n3)CC2)CN1c1ncccn1 (stereo not shown) : ClpP1P2: -1.745%; PfKRS1: 1.329%
* CC(C)(NCC(=O)NCCC#N)c1ccc2c(c1)OCCO2 : ClpP1P2: 15.55%; MtTrpRS: 2.269%; Pks13 thioesterase: -6.167%; PfKRS1: 2.312%
* CCC1(CNCc2ncc[nH]2)CCCC1 : ClpP1P2: 0.4831%; MtTrpRS: -6.416%; Pks13 thioesterase: -19.96%; PfKRS1: 3.168%
* CN(Cc1cccs1)C(=O)CN1CCCCC1Cn1cncn1 (stereo not shown) : ClpP1P2: -7.277%; MtTrpRS: 2.004%; Pks13 thioesterase: 13.23%; PfKRS1: 0.5845%
* Cc1cc(C)c2nc(C)c(C(=O)N3CCC(N4CCCC4)CC3)cc2c1 : ClpP1P2: 14.41%; MtTrpRS: 3.125%; Pks13 thioesterase: -13.46%; PfKRS1: -0.3844%
* COC(=O)c1cccc(S(=O)(=O)Nc2ccc(Cl)c(C(N)=O)c2)c1 : ClpP1P2: 12.71%; MtTrpRS: 1.845%; Pks13 thioesterase: -25.66%; PfKRS1: 4.941%
* Cc1cc(N2CCCN(c3nc(C)nc(C)c3C)CC2)ccn1 : ClpP1P2: -8.229%; MtTrpRS: 3.428%; Pks13 thioesterase: 2.014%; PfKRS1: -0.533%
* Cc1csc(C2CCCN(C(=O)c3c[nH]c(C)n3)C2)n1 (stereo not shown) : ClpP1P2: -22.56%; MtTrpRS: -8.192%; Pks13 thioesterase: -5.828%; PfKRS1: -0.5858%
* Cc1nc(N[C@H]2COC[C@@H]2N2CCCC2)c2cnn(C)c2n1 : ClpP1P2: -6.551%; MtTrpRS: -3.451%; Pks13 thioesterase: -28.81%; PfKRS1: 5.512%
* Cc1cccc2nc(CN3CCCC(C)C3)cc(=O)n12 (stereo not shown) : ClpP1P2: 8.958%; MtTrpRS: -3.204%; Pks13 thioesterase: -6.195%; PfKRS1: -3.197%
* CN(C)C(=O)CN1C[C@@H]2CC[C@H](C1)N(C(=O)CCn1cncn1)C2 : ClpP1P2: -4.292%; MtTrpRS: -1.316%; Pks13 thioesterase: -4.818%; PfKRS1: 4.417%
* O=C(NC1CCCC1)N1CC[C@H]2[C@H]1CCN2c1nncs1 : ClpP1P2: 11.6%; MtTrpRS: 0.1079%; Pks13 thioesterase: -2.942%; PfKRS1: 5.835%
* Cn1ccc2cc(C(=O)Nc3nc[nH]n3)ccc21 : ClpP1P2: -5.784%; MtTrpRS: -1.431%; Pks13 thioesterase: -1.156%; PfKRS1: 5.097%

Once more, the final 2:

structure,ClpP1P2,MtTrpRS,Pks13 thioesterase,PfKRS1
O=C(NC1CCCC1)N1CC[C@H]2[C@H]1CCN2c1nncs1,11.6,0.1079,-2.942,5.835
Cn1ccc2cc(C(=O)Nc3nc[nH]n3)ccc21,-5.784,-1.431,-1.156,5.097

The values are deposited in ChEMBL (CHEMBL3988442, “University of Dundee, Small-Polar-MMV Screening Library” (2021)).